Test results as given in patent US8648081B2 (Eli Lilly and Company, priority 2011, dated 2014).
Some entries share one result that the patent states for a list of compounds.

System: nymphal stage American dog ticks (Dermacentor variabilis)
Assay: In Vivo Rodent Acaricide Test (RAT)
Conditions: dose of not more than 25 mpk, oral gavage, Sprague-Dawley rats, ticks counted 48 hours post-treatment

| SMILES | percent efficacy (% reduction in live tick counts) |
| --- | --- |
| O=C(CNC(=O)c1sc(C2=NOC(c3cc(Cl)c(F)c(Cl)c3)(C(F)(F)F)C2)c2c1CCC2)NCC(F)F (centres unmarked) [Example 244, 3-[5-(3,5-dichloro-4-fluoro-phenyl)-5-trifluoromethyl-4,5-dihydro-isoxazol-3-yl]-5,6-dihydro-4H-cyclopenta[c]thiophene-1-carboxylic acid [(2,2-difluoro-ethylcarbamoyl)-methyl]-amide] | ≥ 50% |
| O=C(CNC(=O)c1sc(C2=NO[C@@](c3cc(Cl)c(F)c(Cl)c3)(C(F)(F)F)C2)c2c1CCC2)NCC(F)F [Example 245, (S)-3-[5-(3,5-dichloro-4-fluoro-phenyl)-5-trifluoromethyl-4,5-dihydro-isoxazol-3-yl]-5,6-dihydro-4H-cyclopenta[c]thiophene-1-carboxylic acid [(2,2-difluoro-ethylcarbamoyl)-methyl]-amide] | ≥ 50% |
